From patent US7700559B2, “Gonadotropin releasing hormone analogues conjugates with steroid hormones” (Medical Research Council, priority 2003, dated 2010)
For at least one compound, name, drawing or mass did not settle the structure. Non-standard residues stand in square brackets, D forms with d. Residues, ends and D or L forms follow the SMILES beside them. dPhe(4-Cl) = N[C@H](Cc1ccc(Cl)cc1)C(=O)O; dPhe(4-F) = N[C@H](Cc1ccc(F)cc1)C(=O)O; d2Nal = N[C@H](Cc1ccc2ccccc2c1)C(=O)O; d3Pal = N[C@H](Cc1cccnc1)C(=O)O; ΔPro = O=C(O)[C@@H]1C=CCN1

Biological target: T1, human GnRH receptor (Homo sapiens, UniProt P30968)
T1 construct: expressed in transfected cells; host or cells: COS-7 cells (whole cells)
T1 sequence (P30968 1-328): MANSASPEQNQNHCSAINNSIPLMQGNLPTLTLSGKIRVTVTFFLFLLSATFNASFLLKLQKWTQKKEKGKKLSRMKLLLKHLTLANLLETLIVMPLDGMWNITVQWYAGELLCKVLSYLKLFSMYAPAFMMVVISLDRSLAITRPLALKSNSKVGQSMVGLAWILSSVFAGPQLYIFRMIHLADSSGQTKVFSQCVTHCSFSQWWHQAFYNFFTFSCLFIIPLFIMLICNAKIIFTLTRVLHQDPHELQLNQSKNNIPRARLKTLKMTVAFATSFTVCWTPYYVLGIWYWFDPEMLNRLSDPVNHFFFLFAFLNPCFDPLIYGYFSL
Test: Whole cell binding assay, displacement of 125I-GnRH agonist from COS-7 cells transfected with the human GnRH receptor
Details: COS-7 cells transfected with human GnRH receptor, 125I-GnRH agonist displacement; read-out: ED50, GnRH receptor whole cell binding

CC(=O)N[C@H](Cc1ccc2ccccc2c1)C(=O)N[C@H](Cc1ccc(Cl)cc1)C(=O)N[C@H](Cc1cccnc1)C(=O)N[C@@H](CO)C(=O)N[C@@H](CCCNC(=N)N)C(=O)N[C@H](CCCCN)C(=O)N[C@@H](CC(C)C)C(=O)N[C@@H](CCCNC(=N)N)C(=O)N1CCC[C@H]1C(=O)N[C@H](C)C(N)=O [antagonist A, [AcD-Nal^1,D-Cpa^2,D-Pal^3,Arg^5,D-Lys^6,D-Ala^10]GnRH, reference compound] (Ac-[d2Nal][dPhe(4-Cl)][d3Pal]SR[dK]LRP[dA]-NH2)
EC50: 16 nM

CC(=O)N1CC=C[C@H]1C(=O)N[C@H](Cc1ccc(F)cc1)C(=O)N[C@H](Cc1c[nH]c2ccccc12)C(=O)N[C@@H](CO)C(=O)N[C@@H](Cc1ccc(O)cc1)C(=O)N[C@H](CCCCN)C(=O)N[C@@H](CC(C)C)C(=O)N[C@@H](CCCNC(=N)N)C(=O)N1CCC[C@H]1C(=O)NCC(N)=O [antagonist B, [Ac-ΔPro^1,D-Fpa^2,D-Trp^3,D-Lys^6]GnRH, reference compound] (Ac-[ΔPro][dPhe(4-F)][dW]SY[dK]LRPG-NH2)
EC50: 47 nM
